Laboratory results taken from publication PMC5788269.
No constants are given. Whether binding was seen depends on the method and setting. Some binding calls cover weakened binding; strength is not graded here.

Chains of the proteins cited; added tags and fusions are not shown. Lines headed by an entry give the natural chain unless they say otherwise; changes in a name come on top.
UniProt Q06632: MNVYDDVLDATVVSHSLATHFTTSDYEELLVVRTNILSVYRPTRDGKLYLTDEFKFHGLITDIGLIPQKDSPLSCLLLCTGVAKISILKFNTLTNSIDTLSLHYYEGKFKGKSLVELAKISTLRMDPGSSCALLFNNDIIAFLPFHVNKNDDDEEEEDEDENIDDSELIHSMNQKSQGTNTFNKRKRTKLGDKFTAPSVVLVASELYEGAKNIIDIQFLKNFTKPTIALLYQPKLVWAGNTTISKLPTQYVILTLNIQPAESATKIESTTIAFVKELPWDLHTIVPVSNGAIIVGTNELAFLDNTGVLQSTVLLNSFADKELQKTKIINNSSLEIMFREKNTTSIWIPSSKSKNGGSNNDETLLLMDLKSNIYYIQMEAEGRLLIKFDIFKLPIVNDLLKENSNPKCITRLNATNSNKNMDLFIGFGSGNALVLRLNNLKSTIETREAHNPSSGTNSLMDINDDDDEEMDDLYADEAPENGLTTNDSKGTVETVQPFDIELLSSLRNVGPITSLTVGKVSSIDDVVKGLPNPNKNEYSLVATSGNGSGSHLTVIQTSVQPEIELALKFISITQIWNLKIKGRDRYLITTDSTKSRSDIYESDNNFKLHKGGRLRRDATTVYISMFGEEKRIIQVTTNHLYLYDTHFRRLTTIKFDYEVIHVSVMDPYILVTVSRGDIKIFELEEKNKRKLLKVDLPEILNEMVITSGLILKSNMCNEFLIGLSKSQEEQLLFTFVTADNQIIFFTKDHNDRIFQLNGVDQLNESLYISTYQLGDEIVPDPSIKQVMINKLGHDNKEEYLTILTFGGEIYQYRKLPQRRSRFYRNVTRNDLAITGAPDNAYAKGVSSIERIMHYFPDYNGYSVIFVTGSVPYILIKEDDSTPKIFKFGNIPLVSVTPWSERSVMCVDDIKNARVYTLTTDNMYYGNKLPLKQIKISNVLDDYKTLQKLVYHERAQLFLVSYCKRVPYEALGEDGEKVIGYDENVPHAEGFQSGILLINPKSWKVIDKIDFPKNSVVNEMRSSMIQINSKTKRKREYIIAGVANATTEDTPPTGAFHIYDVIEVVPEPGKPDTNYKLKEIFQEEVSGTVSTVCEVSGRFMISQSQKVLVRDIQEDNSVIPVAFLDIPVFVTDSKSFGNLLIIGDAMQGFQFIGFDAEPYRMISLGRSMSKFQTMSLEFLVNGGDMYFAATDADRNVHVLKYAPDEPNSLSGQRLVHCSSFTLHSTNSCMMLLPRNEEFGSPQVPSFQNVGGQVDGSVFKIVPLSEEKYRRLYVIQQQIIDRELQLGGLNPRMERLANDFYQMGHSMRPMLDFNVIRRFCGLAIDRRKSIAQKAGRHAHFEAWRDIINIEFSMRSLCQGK
UniProt P42841: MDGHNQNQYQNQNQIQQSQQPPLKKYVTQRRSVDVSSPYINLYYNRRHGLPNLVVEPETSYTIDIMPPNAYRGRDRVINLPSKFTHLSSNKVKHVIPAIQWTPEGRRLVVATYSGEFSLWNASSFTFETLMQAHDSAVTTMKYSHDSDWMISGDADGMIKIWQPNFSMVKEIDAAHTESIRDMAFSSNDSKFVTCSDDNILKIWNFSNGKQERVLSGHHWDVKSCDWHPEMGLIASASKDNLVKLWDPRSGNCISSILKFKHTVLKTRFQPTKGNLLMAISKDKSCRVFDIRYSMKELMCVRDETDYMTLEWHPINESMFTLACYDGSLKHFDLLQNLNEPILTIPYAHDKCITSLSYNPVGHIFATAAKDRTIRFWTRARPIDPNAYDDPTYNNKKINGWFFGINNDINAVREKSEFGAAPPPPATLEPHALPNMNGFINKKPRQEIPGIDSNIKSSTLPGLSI
UniProt P29468: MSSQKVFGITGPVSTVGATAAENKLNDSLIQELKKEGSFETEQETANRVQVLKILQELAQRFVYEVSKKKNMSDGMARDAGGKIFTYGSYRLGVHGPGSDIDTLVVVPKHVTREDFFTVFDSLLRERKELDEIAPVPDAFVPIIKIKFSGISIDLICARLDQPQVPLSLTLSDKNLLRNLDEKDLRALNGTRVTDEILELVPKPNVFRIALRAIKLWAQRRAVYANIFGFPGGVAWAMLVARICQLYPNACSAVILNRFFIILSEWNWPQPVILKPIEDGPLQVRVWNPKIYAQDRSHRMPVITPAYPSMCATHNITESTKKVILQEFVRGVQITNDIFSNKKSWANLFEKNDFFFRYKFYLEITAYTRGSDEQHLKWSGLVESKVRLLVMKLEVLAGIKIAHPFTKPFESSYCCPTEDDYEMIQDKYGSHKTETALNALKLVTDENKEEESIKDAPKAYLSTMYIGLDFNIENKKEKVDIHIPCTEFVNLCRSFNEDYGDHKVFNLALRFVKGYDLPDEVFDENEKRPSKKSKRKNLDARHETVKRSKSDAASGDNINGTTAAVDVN
UniProt P45976: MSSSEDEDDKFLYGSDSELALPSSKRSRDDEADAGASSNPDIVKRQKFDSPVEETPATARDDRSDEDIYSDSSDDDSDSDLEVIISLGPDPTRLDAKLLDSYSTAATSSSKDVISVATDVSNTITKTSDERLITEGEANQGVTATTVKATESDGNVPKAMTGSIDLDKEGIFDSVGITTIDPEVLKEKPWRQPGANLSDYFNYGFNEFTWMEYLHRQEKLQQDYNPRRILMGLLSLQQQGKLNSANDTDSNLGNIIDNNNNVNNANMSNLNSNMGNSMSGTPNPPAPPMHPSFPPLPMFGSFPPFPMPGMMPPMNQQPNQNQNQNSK
UniProt Q06102: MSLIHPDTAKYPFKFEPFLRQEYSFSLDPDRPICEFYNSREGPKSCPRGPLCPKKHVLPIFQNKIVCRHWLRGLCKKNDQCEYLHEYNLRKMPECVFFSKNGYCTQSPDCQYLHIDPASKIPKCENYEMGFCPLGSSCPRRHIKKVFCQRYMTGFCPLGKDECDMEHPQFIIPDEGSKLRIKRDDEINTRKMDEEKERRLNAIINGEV
UniProt P25298: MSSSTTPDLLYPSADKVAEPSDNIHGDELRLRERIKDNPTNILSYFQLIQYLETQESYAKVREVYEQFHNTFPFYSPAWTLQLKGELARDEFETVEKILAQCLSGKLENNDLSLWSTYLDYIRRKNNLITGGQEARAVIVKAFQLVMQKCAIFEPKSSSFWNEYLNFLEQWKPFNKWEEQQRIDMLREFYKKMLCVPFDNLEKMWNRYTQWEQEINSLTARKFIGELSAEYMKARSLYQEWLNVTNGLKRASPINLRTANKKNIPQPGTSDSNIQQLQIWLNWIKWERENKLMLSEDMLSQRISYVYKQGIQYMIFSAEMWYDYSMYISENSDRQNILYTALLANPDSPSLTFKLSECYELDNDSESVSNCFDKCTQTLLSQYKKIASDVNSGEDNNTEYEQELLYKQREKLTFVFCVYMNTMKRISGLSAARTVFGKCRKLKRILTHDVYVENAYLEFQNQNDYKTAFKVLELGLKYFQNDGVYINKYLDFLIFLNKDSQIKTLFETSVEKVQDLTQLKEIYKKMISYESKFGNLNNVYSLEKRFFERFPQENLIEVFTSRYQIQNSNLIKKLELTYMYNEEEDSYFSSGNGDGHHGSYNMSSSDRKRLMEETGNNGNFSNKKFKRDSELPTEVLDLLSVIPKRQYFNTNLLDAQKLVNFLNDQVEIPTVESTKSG

Key:
[1] = target: polymerase module of CPF (recombinant; Cft1, Pfs2, Pap1, Fip1, Yth1) (yeast) (UniProt Q06632+P42841+P29468+P45976+Q06102); experiment: pull-down; polymerase module immobilized, incubated with purified MBP, CF IA or Rna14–Rna15; Coomassie-stained SDS-PAGE; both purified
[2] = target: recombinant four-subunit complex (Cft1, Pfs2, Yth1, Fip1) (yeast) (UniProt Q06632+P42841+Q06102+P45976); experiment: co-purification of the overexpressed complex; polymerase module overexpressed in insect cells, purified with or without the Pap1 subunit

binding [1] | binding [2] | Substance
binds |  | cleavage factor IA (CF IA), recombinant (from UniProt P25298 1-677; P25299 1-296; P39081 1-626; Q08685 1-445) (complex)
 | binds | Pap1 (recombinant, polymerase module) (from UniProt P29468 1-568) (enzyme)
